{"source": "patent EP4559923A1", "about": "“ANTIHISTAMINE COMPOUND, AND PREPARATION METHOD THEREFOR AND USE THEREOF” (HC Synthetic Pharmaceutical Co., Ltd., priority 2022, dated 2024)", "tested_on": "isolated ileal smooth muscle", "experiment": "Muscle tone of isolated ileal smooth muscle of guinea pigs, compound alone", "conditions": "Table 3, no histamine, X±s, n = 8", "protocol": "The guinea pig was knocked unconscious with a wooden stick, and the abdomen was immediately dissected to separate the ileum about 15 cm in length. The contents of the intestinal segment were flushed with Tyrode's solution and placed in Tyrode's solution at a constant temperature of 37°C for later use, and oxygen was supplied simultaneously. The experimental intestinal tract (1 cm in length) was cut and placed into 20 ml of Tyrode's solution at a constant temperature of 37°C with a continuous oxygen supply. One end of the intestine was fixed on the ventilation hook and the other end was connected to the muscle tone transducer and led to the computer interface. The muscle tone value of the ileal smooth muscle was recorded with a BL system. The experiment was carried out after the intestinal segment contraction became stable.\nAfter the ileum contraction curve stabilized, the tone values before adding the drug were recorded, then the drug or DMSO was added, and the average tone value of the ileum contraction curve at that point was recorded 5 minutes later. The operation was repeated 8 times. The antispasmodic percentage was calculated according to the following formula. Antispasmodic percentage =; (Tone value before adding subject compound−Tone value after adding subject compound)/(Tone value before adding subject compound) × 100% [formula]"}
{"smiles": "Clc1ccc2c(c1)CCc1cccnc1C2=C1CCNCC1", "note": "[Desloratadine, desloratadine, reference compound]", "values": [{"measurement": "Smooth muscle tone (g) After administration", "setting": "5 minutes after adding the drug", "value": "1.33 ± 0.28", "unit": "g"}, {"measurement": "Antispasmodic percentage (%)", "setting": "relative to tone before adding compound, 5 min", "value": "22.94±9.21", "unit": "%"}]}
